In US9580749B2, “Dyes and labeled molecules” (Biotium, Inc., priority 2005, dated 2017):

System: salmon sperm DNA
Assay: Absorbance and fluorescence emission spectra of dyes without or with DNA in PBS buffer
Assay type: physicochemical
Method: The spectra were normalized to 1 in the absorbance plot. […] The heterodimeric dye AORO-7 comprises a monomeric AO dye and a fluorescent non-nucleic acid rosamine RO dye. Two emission peaks, contributed by AO and RO moieties, respectively, were recorded.

Compound	fluorescence per acridine monomer when bound to DNA (2 mg/ml salmon sperm DNA, PBS buffer)	background fluorescence and fluorescence upon binding to DNA, relative to monomeric DMAO (FIG. 4, PBS buffer before and after DNA addition)	fluorescence resonance energy transfer (FRET) effect (bound to DNA)
CN(C)c1ccc2cc3ccc(N(C)C)cc3[n+](CCCCCC(=O)NCCCCCNC(=O)CCCCC[n+]3c4cc(N(C)C)ccc4cc4ccc(N(C)C)cc43)c2c1 [AOAO-7]	close to that of DMAO	lower background fluorescence and higher fluorescence upon binding to DNA	–
CC1=CC(C)(C)Nc2cc3c(cc21)C(c1ccc(C(=O)NCCCCCC(=O)NCCCCCNC(=O)CCCCC[n+]2c4cc(N(C)C)ccc4cc4ccc(N(C)C)cc42)cc1)=c1cc2c(cc1O3)=NC(C)(C)C=C2C [AORO-7]	–	–	negligible
